This is one part of the list. Many values rest on one well or one pass, so single values are uncertain.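 Primary human fetal astrocytes engulfed labelled rat cortical synaptosomes, measured as a red/green ratio corrected for calcein live-cell signal and scaled to the plate median. Toxicity meant calcein falling over 30%; decreased phagocytosis meant below 70% of median above 5 µM.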
How the values were obtained:
Settings in all cases: 24 h
[1] = test system: Human fetal astrocytes; test: loss of total cells relative to no-compound high-control median (toxicity); higher = more toxic (fewer cells)
[2] = test system: Human fetal astrocytes; test: synaptosome phagocytosis (pHrodo/calcein intensity ratio) relative to plate median of data wells; higher = more phagocytosis
[3] = test system: Human fetal astrocytes; test: loss of total cells relative to no-compound high-control median (toxicity); higher = more toxic (fewer cells); remark: listed apart in the source
[4] = test system: Human fetal astrocytes; test: synaptosome phagocytosis (pHrodo/calcein intensity ratio) relative to plate median of data wells; higher = more phagocytosis; remark: listed apart in the source

SMILES | loss of total cells ([1]; 1.39 µM) [%] | loss of total cells ([1]; 2.78 µM) [%] | loss of total cells ([1]; 5.56 µM) [%] | loss of total cells ([1]; 11.11 µM) [%] | loss of total cells ([1]; 22.22 µM) [%] | synaptosome phagocytosis ([2]; 1.39 µM) [%] | synaptosome phagocytosis ([2]; 2.78 µM) [%] | synaptosome phagocytosis ([2]; 5.56 µM) [%] | synaptosome phagocytosis ([2]; 11.11 µM) [%] | synaptosome phagocytosis ([2]; 22.22 µM) [%] | loss of total cells ([3]; 1.39 µM) [%] | loss of total cells ([3]; 2.78 µM) [%] | loss of total cells ([3]; 5.56 µM) [%] | loss of total cells ([3]; 11.11 µM) [%] | loss of total cells ([3]; 22.22 µM) [%] | synaptosome phagocytosis ([4]; 1.39 µM) [%] | synaptosome phagocytosis ([4]; 2.78 µM) [%] | synaptosome phagocytosis ([4]; 5.56 µM) [%] | synaptosome phagocytosis ([4]; 11.11 µM) [%] | synaptosome phagocytosis ([4]; 22.22 µM) [%]
N[C@@H](CSCSC[C@H](N)C(=O)O)C(=O)O | -13.1 | -6.9 | -3.7 | -4.1 | 9.6 | 120 | 99.6 | 120 | 112 | 102 |  |  |  |  |  |  |  |  |  | 
C=C(C)[C@@H]1CC[C@]2(C)CC[C@]3(C)[C@H](CC[C@@H]4[C@@]5(C)CC[C@H](O)C(C)(C)[C@@H]5CC[C@]43C)[C@@H]12 | -33.6 | -3.2 | -11 | 15.5 | 14.1 | 87.5 | 106 | 102 | 130 | 129 |  |  |  |  |  |  |  |  |  | 
O=C(O)[C@]1(O)C[C@@H](O)[C@@H](O)[C@H](O)C1 | -4.9 | -4.7 | 0.7 | -5.4 | 3.7 | 105 | 105 | 92.2 | 124 | 97.5 |  |  |  |  |  |  |  |  |  | 
C[C@]12C=CC(=O)C=C1CC[C@@H]1[C@@H]2[C@@H](O)C[C@@]2(C)[C@H]1CC[C@]2(O)C(=O)COC(=O)CCC(=O)O | 21.8 | -25.4 | 9.3 | 5.6 | -5.3 | 123 | 77.7 | 102 | 80.1 | 89.2 |  |  |  |  |  |  |  |  |  | 
Nc1ncnc2c1ncn2[C@@H]1O[C@H](CO)[C@@H](O)[C@H]1O | -0.8 | -13.7 | 21.3 | 0 | 11.9 | 80.3 | 102 | 113 | 118 | 118 |  |  |  |  |  |  |  |  |  | 
O=C(O)CCCCCCCCCCCC[C@@H]1C=CCC1 | 16.2 | 20.6 | 12.3 | -7.9 | 18.2 | 132 | 135 | 93.8 | 122 | 144 |  |  |  |  |  |  |  |  |  | 
CC(=O)c1c(O)c(C)c(O)c2c1OC1=CC(=O)C(C(C)=O)C(=O)C12C (stereo not given) | -2.5 | 3.3 | -9.9 | 9.7 | 3.3 | 116 | 107 | 97.5 | 115 | 128 |  |  |  |  |  |  |  |  |  | 
O=C(CCCN1CCC(O)(c2ccc(Cl)cc2)CC1)c1ccc(F)cc1 [Haloperidol] | 1.5 | -14.6 | -11.8 | 14.7 | 5.8 | 95.9 | 100 | 79.9 | 101 | 80.9 | 7.9 | -10.3 | -9.1 | -3.1 | -2.4 | 120 | 76.2 | 98.3 | 86.4 | 106
CC[N+](C)(C)c1cccc(O)c1 [Edrophonium chloride] | -13.3 | -10.7 | 6.3 | -10.9 | 5.7 | 90.4 | 112 | 106 | 93.6 | 102 | -5.4 | -8.5 | -14.8 | -6.7 | -24.8 | 93.9 | 108 | 97.8 | 107 | 83.8
NCCCCCC(=O)O [6-Aminohexanoic acid] | 2.5 | 26.5 | -5.1 | -16.4 | 6.2 | 109 | 59.2 | 104 | 112 | 87.4 |  |  |  |  |  |  |  |  |  | 

Source: the supplement of paper PMC10689618
